Some entries share one result that the patent states for a list of compounds.
Experiment: Fasting glycaemia at beginning and end of the diabetic peripheral neuropathy study
Format: in vivo, human
Conditions: end of 35-day treatment, combination 35% spirulina, 65% PEA

## CCCCCCCCCCCCCCCC(=O)NCCO [PEA, Palmitoylethanolamide]
  fasting glycaemic value after treatment: 140 to 160 mg/dL
